Measured values: PubChem BioAssay AID687031 (Broad Institute, 2013)
The campaign covered roughly 1,400 compounds. About 50 (4%) were called active.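 Rule for the calls: active = fitted curve reaches 30% CPE protection at or below the top valid dose, with every test run called active; inconclusive = test runs disagree, some active and some not; inactive = every test run inactive, including effects in the wrong direction.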 The list shows a part of the results. Measured potencies and affinities stand elsewhere.

assay: Dengue virus 2 cytopathic effect protection, dose response, BHK-21 cells, ATP luminescence, cherry-pick (AID 687031); details: BHK-21 DENV2 CPE protection, 5 d; at 19.5 µM (top of the series) unless noted;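 note: 0% = infected DMSO wells and 100% = uninfected cell wells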

CPE protection (higher = active), inactive:
O=C(Nc1ccncc1)Nc1ccc(Cl)cc1Cl 1.37%
O=S(=O)(c1cccc(C(F)(F)F)c1)N1CCN(CC(O)COCc2ccccc2)CC1 (centres undefined) -4.84%
Brc1ccc(OCc2nnc(SCC3CCCCC3)o2)cc1 1.56%
COc1ccccc1CN1CCCC(N2CCN(c3ccccc3OC)CC2)C1 (centres undefined) -5.36%
COc1ccccc1CN1[C@H](CO)[C@@H](c2ccccc2)C12CN(C(=O)c1ccccn1)C2 17.5%
NC(=O)c1ccccc1NC(=O)COC(=O)C1(c2ccccc2)CC1 -0.556%
CCCCCNCc1ccc(OCc2ccc(Cl)nc2)c(OC)c1 -18.7%
Cc1ccc(S(=O)(=O)N(C)C[C@@H]2OCCCC[C@H](C)Oc3ccc(NS(=O)(=O)c4c(C)noc4C)cc3C(=O)N([C@H](C)CO)C[C@H]2C)cc1 -11.9%
COc1ccc(CC(=O)NCC2CCCN(Cc3ccc(OC(F)(F)F)cc3)C2)cc1 (centres undefined) 12.2%
Cc1cccc(C)c1NC(=O)CN1CCN(C(=O)CN2C(=O)NC3(CCCCC3C)C2=O)CC1 (centres undefined) 13.3%
Cc1ccnc(NC(=O)c2ccc(Cl)c(S(=O)(=O)N3CCCC3)c2)c1 -9.39%
O=S(=O)(NCc1c(Cl)cccc1Oc1ccccc1)c1ccccc1 -4.85%
COc1cc(C(=O)OCCn2c(=O)c3c(ncn3CCN(C)C)n(C)c2=O)cc(OC)c1OC -1.4%
COc1ccc(-c2cc(C#N)nc(NN)n2)cc1 -4.19%
Clc1ccc(-c2csc(-c3cccnc3)n2)s1 -19.4%
C[C@@H]1CN([C@H](C)CO)C(=O)c2cc(NC(=O)Nc3ccc(C(F)(F)F)cc3)ccc2O[C@H]1CN(C)C(=O)NC1CCCCC1 17.9%
CCC(C)c1ccc(NC(=O)NCCN2CCCCC2)cc1 (centres undefined) -15.7%
O=C(C1CC1)N1CC[C@@H]2[C@H]1c1cc(-c3ccc(F)cc3)ccc1N[C@@H]2CO 19.9%
COc1ccc(Cc2nnc(NC(=O)c3ccccc3Cl)s2)cc1OC -3.71% [at 10 µM]
C=CCOc1ccccc1CN1CCC(Cc2ccccc2)CC1 -20%
COC(=O)C1[C@H]2SC(C)(C)C(C(=O)OC)N2C(=O)N1Cc1nc2ccccc2s1 (some centres undefined) 1.83%
CN(C)CCCNc1oc(-c2ccc(Cl)cc2)nc1S(=O)(=O)c1ccccc1 14%
O=S(=O)(Nc1cccc(-n2cnnn2)c1)c1cccc(Cl)c1 2.88%
CC1(c2nnnn2Cc2ccccc2)CCC(=O)N1CCCn1ccnc1 (centres undefined) 15.2%
CCOC(=O)c1cn(CC)c2cc3c(cc2c1=O)OCO3 7.12%
O=C(O)C[C@H]1C=C[C@@H](NC(=O)CCN2CCCCC2)[C@@H](CO)O1 -6.45%
CC(C)C[C@H](NC(=O)c1nc[nH]c1C(=O)N1CCC(C)CC1)C(=O)OC(C)(C)C -8.21%
CCCc1cc(CNC(=O)C2CCC(=O)N(CCc3cccc(F)c3)C2)on1 (centres undefined) -19.7%
CC(C)C[C@@H](COc1ccccc1)N1CCN(Cc2ccccc2)CCC1=O -10.9%
Cc1noc(C)c1S(=O)(=O)Nc1ccc2c(c1)C(=O)N([C@H](C)CO)C[C@H](C)[C@H](CN(C)C(=O)Nc1ccccc1)OCCCC[C@@H](C)O2 7.27%
CCC(=O)N1[C@@H]2c3ccc(C4=CCCCC4)c(=O)n3C[C@H]1[C@H](CO)[C@H]2C(=O)N[C@H](C)c1ccccc1 14.6%
CC(Oc1ccccc1Cl)C(=O)N1CCOCC1 (centres undefined) 12.7%
COc1ccc(C(CNC(=O)CCNC(=O)c2ccc(Br)cc2)N2CCOCC2)cc1 (centres undefined) 10.9%
O=C(c1cc(C2CC2)on1)N1CCCC(N2CCN(c3cccc(C(F)(F)F)c3)CC2)C1 (centres undefined) 8.43%
CCOC(=O)CC1(C)Sc2ccccc2N1S(=O)(=O)c1ccc(C)cc1 (centres undefined) 5.54%
O=C(O)C1CCCCC1C(=O)N1CCN(S(=O)(=O)c2ccc(F)cc2)CC1 (centres undefined) -12.7%
CCCCNC(=O)C1(C)CCN1C(=O)c1cncc(Br)c1 (centres undefined) -12.5%
CCOC(=O)C1=C(CS(=O)(=O)c2ccc(C)cc2)NC(=O)NC1c1cc(OC)c(O)c(OC)c1 (centres undefined) 2.77%
Cc1[nH]c2ccccc2c1CC(=O)Nc1ccc(N(C)c2cccnc2)c(-c2ccc(F)c(F)c2)c1 -18.9%
C[C@@H]1CCCCO[C@H](CN(C)Cc2ccc(Cl)c(Cl)c2)[C@H](C)CN([C@@H](C)CO)C(=O)c2cc(NC(=O)c3ccccc3)ccc2O1 -6.71% [at 21 µM]
C[C@H](CO)N1C[C@H](C)[C@H](CN(C)Cc2ccccc2)Oc2c(NS(=O)(=O)c3ccc(F)cc3)cccc2C1=O -7.37%
COc1ccccc1CN(C)C(=O)c1cccc(S(=O)(=O)N2CCCc3ccccc32)c1 20.4%
Cc1ccc(C(C)C)c(OCCNC(=O)c2ccccc2O)c1 -16.5%
O=C(OCC(=O)N1CCOCC1)c1cc(=O)[nH]c2ccccc12 17.9%
Cc1ccc(NC(=O)c2cc(-c3cc(Cl)ccc3C)n[nH]2)cc1NS(C)(=O)=O -8.63% [at 10 µM]
Cn1cnc(S(=O)(=O)N2C[C@@H](O)COC[C@@H]3O[C@@H](CC(=O)NC4CCCC4)CC[C@H]32)c1 -14%
CC(C)[C@H](NC(=O)C1CC1)C(=O)N1CCC[C@H]1C(=O)NCCc1ccccc1Cl -0.264%
C[C@@H]1CN([C@@H](C)CO)C(=O)c2cc(NC(=O)Nc3ccc(C(F)(F)F)cc3)ccc2O[C@@H]1CN(C)C(=O)NC1CCCCC1 8.46% [at 21 µM]
CC(C)CCNC(=O)C1CC(c2ccccc2C(F)(F)F)=NO1 (centres undefined) 10.9%
Cc1ccc2c(c1)N(CCCC(=O)NCc1ccc3c(c1)OCO3)C(=O)CO2 11.7%
Cc1ccccc1NC(=O)c1ccc(S(=O)(=O)N(C)C)cc1 -3.98%
N#C[C@H]1[C@H](c2ccc(C#CC3CCCCC3)cc2)[C@@H](CO)N1C(=O)Cc1ccccn1 -17.6%
COCC#Cc1ccc2c(c1)O[C@@H](CN(C)C(=O)Nc1ccccc1F)[C@H](C)CN([C@@H](C)CO)S2(=O)=O -4.23%
CCOC(=O)CNC(=O)N(C)[C@H]1C[C@H]2c3[nH]c4ccccc4c3CCN2C(=O)[C@H]1[C@H](C)O 5.48%
Cc1ccc(CCN2CC(C(=O)NCCc3ccccc3)CC2=O)cc1 (centres undefined) -17.8%
ClCCCc1cn(C[C@H]2CC[C@@H]([C@@H]3CC[C@H](Cn4cc(CCCCl)nn4)O3)O2)nn1 -9.65%
COc1ccc(S(=O)(=O)N(C)C[C@@H]2OCCCC[C@H](C)Oc3ccc(NS(=O)(=O)c4c(C)noc4C)cc3C(=O)N([C@H](C)CO)C[C@H]2C)cc1 -2.45% [at 21 µM]
CCC(C)CN1C(=O)CSCC1(C)C(=O)Nc1ccc2c(c1)OCCO2 (centres undefined) 14.8%
CC(=O)Nc1cccc(C(=O)OC(C)C(=O)NC(=O)NC2CCCCC2)c1 (centres undefined) -3.28%
COc1ccc(CC(=O)NC2CCCCCC2)c(OC)c1 2.58%
C[C@H](NC(=O)c1ncn(Cc2ccccc2)c1C(=O)N[C@@H](C)c1ccccc1)c1ccccc1 -10.4%
CC(C)c1ccc(Nc2ncc3c(n2)CCN(C(=O)Nc2ccc(F)c(Cl)c2)C3)cc1 -25%
CCCn1c(=N)n(CC(O)COc2ccc(C)cc2)c2ccccc21 (centres undefined) -0.84%
CC1=NCCN1CCNC(=O)Nc1ccc(C(C)(C)C)cc1 4.23%
COc1cc(C(=S)N2CCCC2)ccc1OCc1ccc(C)cc1 4.2%
CCOc1ccc(N(CC(=O)Nc2cccc(C)c2)S(C)(=O)=O)cc1 29%
O=C(CN1CCN(S(=O)(=O)c2ccccc2F)CC1)NC1CCCC1 -5.6%
O=C(C[C@@H]1CC[C@@H]2[C@H](COC[C@H](O)CN2CC2CCOCC2)O1)N1CCOCC1 0.487%
Clc1cc(Br)ccc1OCCOCCN1CCCC1 15.6%
Cc1ccc(OCCOCCN2CCCC2)c(Br)c1 9.61%
C[C@H]1CN([C@@H](C)CO)C(=O)Cc2cc(NC(=O)CCCCCC(=O)Nc3ccccc3N)ccc2O[C@H]1CN(C)Cc1ccc(C(F)(F)F)cc1 39.6% [at 21 µM]
Cc1ccc(S(=O)(=O)NC(=O)C2(C)CCN2C(=O)c2ccc(C(F)(F)F)nc2C)cc1 (centres undefined) -3.52%
O=C(COc1ccc(F)cc1)Nc1ccc2c(c1)OCCO2 38.9%
Cc1cc(C)c(-c2c(O)c3ccccc3n(C)c2=O)c(C)c1 -25.4%
CCc1cc2c(=O)[nH]c(COC)nc2s1 -0.268%
COC(=O)CN(c1cc(Cl)ccc1OC)S(=O)(=O)c1ccc(OC)c(OC)c1 3.79%
COc1ccc(CC(N)c2csc(NC(=O)c3ccc(OC)cc3)n2)cc1 (centres undefined) -8.87%
COc1ccc(S(=O)(=O)Nc2ccc3c(c2)C(=O)N([C@@H](C)CO)C[C@H](C)[C@@H](CN(C)C(=O)Nc2ccc(C(F)(F)F)cc2)OCCCC[C@H](C)O3)cc1 21%
Cc1cc(OCC(O)CNC(C)c2ccccc2)ccc1C(C)C (centres undefined) -5.26%

Sorted by molecular weight (smallest number first): 23 of the compounds above
CPE protection (higher = active), inactive:
Clc1ccc(-c2csc(-c3cccnc3)n2)s1 -19.4%
COc1ccc(CC(=O)NC2CCCCCC2)c(OC)c1 2.58%
CCC(C)c1ccc(NC(=O)NCCN2CCCCC2)cc1 (centres undefined) -15.7%
C=CCOc1ccccc1CN1CCC(Cc2ccccc2)CC1 -20%
O=C(O)C[C@H]1C=C[C@@H](NC(=O)CCN2CCCCC2)[C@@H](CO)O1 -6.45%
Cc1cc(OCC(O)CNC(C)c2ccccc2)ccc1C(C)C (centres undefined) -5.26%
NC(=O)c1ccccc1NC(=O)COC(=O)C1(c2ccccc2)CC1 -0.556%
COc1cc(C(=S)N2CCCC2)ccc1OCc1ccc(C)cc1 4.2%
Clc1cc(Br)ccc1OCCOCCN1CCCC1 15.6%
CC(C)C[C@@H](COc1ccccc1)N1CCN(Cc2ccccc2)CCC1=O -10.9%
CCCc1cc(CNC(=O)C2CCC(=O)N(CCc3cccc(F)c3)C2)on1 (centres undefined) -19.7%
COc1ccc(Cc2nnc(NC(=O)c3ccccc3Cl)s2)cc1OC -3.71% [at 10 µM]
CCOC(=O)CC1(C)Sc2ccccc2N1S(=O)(=O)c1ccc(C)cc1 (centres undefined) 5.54%
CC(C)[C@H](NC(=O)C1CC1)C(=O)N1CCC[C@H]1C(=O)NCCc1ccccc1Cl -0.264%
O=C(c1cc(C2CC2)on1)N1CCCC(N2CCN(c3cccc(C(F)(F)F)c3)CC2)C1 (centres undefined) 8.43%
C[C@H](NC(=O)c1ncn(Cc2ccccc2)c1C(=O)N[C@@H](C)c1ccccc1)c1ccccc1 -10.4%
Cc1ccc(S(=O)(=O)NC(=O)C2(C)CCN2C(=O)c2ccc(C(F)(F)F)nc2C)cc1 (centres undefined) -3.52%
Cn1cnc(S(=O)(=O)N2C[C@@H](O)COC[C@@H]3O[C@@H](CC(=O)NC4CCCC4)CC[C@H]32)c1 -14%
Cc1cccc(C)c1NC(=O)CN1CCN(C(=O)CN2C(=O)NC3(CCCCC3C)C2=O)CC1 (centres undefined) 13.3%
COc1ccc(C(CNC(=O)CCNC(=O)c2ccc(Br)cc2)N2CCOCC2)cc1 (centres undefined) 10.9%
CCOC(=O)C1=C(CS(=O)(=O)c2ccc(C)cc2)NC(=O)NC1c1cc(OC)c(O)c(OC)c1 (centres undefined) 2.77%
C[C@@H]1CN([C@H](C)CO)C(=O)c2cc(NC(=O)Nc3ccc(C(F)(F)F)cc3)ccc2O[C@H]1CN(C)C(=O)NC1CCCCC1 17.9%
Cc1ccc(S(=O)(=O)N(C)C[C@@H]2OCCCC[C@H](C)Oc3ccc(NS(=O)(=O)c4c(C)noc4C)cc3C(=O)N([C@H](C)CO)C[C@H]2C)cc1 -11.9%
